Source: publication PMC11209715, “A novel selenium analog of HDACi-based twin drug induces apoptosis and cell cycle arrest via CDC25A to improve prostate cancer therapy” (Theranostics, 2024)

Tests used:
[1] = Drug toxicity test: blood biochemistry in nude mice; type: in vivo; conditions: serum of nude mice
Experimental: Blood samples from each mouse were kept at room temperature for 3 h and centrifuged at 8000 rpm for 15 min to produce serum. The samples were then placed on the blood routine detector for biochemical analysis.

PC3 cells = experiment: CCK-8 cell viability assay, PC3; type: cell-based; conditions: Homo sapiens, PC-3, Figure 2B and text
Experimental: Human cancer cell lines (PC3, DU145, A549, H1299, MDA-MB-231, HepG2, PANC-1, MIA PaCa-2, HT-29, HCT116, and HeLa) were obtained from the Cell Resource Center, Peking Union Medical College (National Infrastructure of Cell Line Resource, NSTI). These cell lines were cultured according to NSTI culture guidelines and cultured in RPMI 1640 medium (Biological Industries, Israel) supplemented with 10% heat-inactivated fetal bovine serum (FBS; BI; Israel), penicillin/streptomycin (P/S; 100 IU/ml; Gibco, 10378016) in an incubator at 37 °C and 5% CO2.
Cell cytotoxicity assays were performed in 96-well plates (NEST) to determine the growth kinetics of SeSA-DCA-treated cells using CCK-8 reagent (Shandong Sparkjade Biotechnology Co., Ltd., CT0001-B). Cells (5000 cells/well) were treated with DMSO or different drugs. Each treatment was performed in five replicates. To assess cell growth, 10 μL of CCK-8 reagent was introduced to every well and allowed to incubate for 4 h. Following that, the absorbance value for each well was measured at 450 nm. Every experiment was duplicated no less than thrice.

IC50 (PC3 cells): > 1800 nM
SMILES: O=C(CCCCCCC(=O)Nc1ccccc1)NO [SAHA, suberoylanilide hydroxamic acid]
A/G [1]: 0.4 ± 0.05
